Data published in the supplement of paper PMC10849652.
Some of the results follow.

Protein sequences, listed by entry. Tags and fused reporters are not part of them. Lines headed by an entry give the natural chain unless they say otherwise; changes in a name come on top.
UniProt Q5TA45, whole entry, looked up: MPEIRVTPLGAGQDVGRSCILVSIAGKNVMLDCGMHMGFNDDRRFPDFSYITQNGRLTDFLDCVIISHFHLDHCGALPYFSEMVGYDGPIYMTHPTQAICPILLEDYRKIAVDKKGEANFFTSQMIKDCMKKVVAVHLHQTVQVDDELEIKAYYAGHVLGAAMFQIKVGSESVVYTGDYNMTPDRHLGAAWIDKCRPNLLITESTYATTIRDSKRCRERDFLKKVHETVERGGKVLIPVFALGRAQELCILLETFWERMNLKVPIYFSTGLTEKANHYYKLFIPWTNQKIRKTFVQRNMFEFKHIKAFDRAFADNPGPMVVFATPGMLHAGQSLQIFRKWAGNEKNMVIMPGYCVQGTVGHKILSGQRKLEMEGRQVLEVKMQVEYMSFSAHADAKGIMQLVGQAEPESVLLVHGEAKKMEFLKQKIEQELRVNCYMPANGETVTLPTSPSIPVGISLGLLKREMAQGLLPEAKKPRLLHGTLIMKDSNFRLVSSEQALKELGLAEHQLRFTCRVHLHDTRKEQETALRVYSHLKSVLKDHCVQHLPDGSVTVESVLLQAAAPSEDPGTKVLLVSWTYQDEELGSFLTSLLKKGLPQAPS
UniProt O00425, whole entry, looked up: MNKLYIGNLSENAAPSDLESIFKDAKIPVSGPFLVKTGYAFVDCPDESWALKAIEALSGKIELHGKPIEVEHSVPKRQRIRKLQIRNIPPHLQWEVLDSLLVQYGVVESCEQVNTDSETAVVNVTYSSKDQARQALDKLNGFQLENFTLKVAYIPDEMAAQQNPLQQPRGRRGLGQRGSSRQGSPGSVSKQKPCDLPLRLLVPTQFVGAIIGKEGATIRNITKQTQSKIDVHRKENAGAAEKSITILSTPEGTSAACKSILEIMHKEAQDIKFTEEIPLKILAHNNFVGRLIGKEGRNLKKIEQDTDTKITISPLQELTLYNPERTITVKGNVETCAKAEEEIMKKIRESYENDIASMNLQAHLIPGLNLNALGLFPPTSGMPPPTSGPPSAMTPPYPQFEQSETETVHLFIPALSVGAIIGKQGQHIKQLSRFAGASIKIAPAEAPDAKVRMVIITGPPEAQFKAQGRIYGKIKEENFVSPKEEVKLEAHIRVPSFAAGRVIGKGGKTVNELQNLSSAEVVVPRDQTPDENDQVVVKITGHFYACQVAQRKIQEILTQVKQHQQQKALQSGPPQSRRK
UniProt Q70UQ0: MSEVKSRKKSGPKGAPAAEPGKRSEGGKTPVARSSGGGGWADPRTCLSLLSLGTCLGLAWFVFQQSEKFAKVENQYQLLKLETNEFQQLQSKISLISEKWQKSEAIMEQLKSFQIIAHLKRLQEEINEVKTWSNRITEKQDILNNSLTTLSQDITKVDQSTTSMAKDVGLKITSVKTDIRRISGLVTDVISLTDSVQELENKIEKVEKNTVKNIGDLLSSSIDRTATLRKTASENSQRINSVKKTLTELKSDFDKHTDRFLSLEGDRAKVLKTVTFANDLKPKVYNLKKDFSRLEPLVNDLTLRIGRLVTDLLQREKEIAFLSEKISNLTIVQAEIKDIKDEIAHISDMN
UniProt Q9NV31: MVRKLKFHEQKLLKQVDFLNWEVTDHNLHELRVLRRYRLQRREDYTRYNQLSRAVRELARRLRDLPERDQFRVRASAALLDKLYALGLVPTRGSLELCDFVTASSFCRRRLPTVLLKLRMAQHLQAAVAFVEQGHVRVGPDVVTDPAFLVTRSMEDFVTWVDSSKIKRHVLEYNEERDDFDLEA
UniProt Q9NX62: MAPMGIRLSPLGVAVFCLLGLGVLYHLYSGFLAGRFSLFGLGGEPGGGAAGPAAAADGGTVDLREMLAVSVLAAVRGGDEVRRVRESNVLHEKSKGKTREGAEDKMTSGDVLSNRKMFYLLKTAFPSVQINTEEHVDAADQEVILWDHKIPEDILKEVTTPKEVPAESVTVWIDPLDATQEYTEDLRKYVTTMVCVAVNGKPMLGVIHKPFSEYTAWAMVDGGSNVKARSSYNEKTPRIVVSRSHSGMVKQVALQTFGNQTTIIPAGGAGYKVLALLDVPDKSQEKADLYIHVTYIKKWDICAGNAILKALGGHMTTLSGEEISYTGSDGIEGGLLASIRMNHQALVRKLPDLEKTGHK
UniProt Q14116, whole entry, looked up: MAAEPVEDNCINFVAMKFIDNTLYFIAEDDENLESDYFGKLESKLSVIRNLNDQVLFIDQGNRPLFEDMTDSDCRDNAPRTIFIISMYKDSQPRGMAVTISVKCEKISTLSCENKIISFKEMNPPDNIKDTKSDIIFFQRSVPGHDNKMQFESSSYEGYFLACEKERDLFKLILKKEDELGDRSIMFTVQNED
UniProt Q9P2H3, whole entry, looked up: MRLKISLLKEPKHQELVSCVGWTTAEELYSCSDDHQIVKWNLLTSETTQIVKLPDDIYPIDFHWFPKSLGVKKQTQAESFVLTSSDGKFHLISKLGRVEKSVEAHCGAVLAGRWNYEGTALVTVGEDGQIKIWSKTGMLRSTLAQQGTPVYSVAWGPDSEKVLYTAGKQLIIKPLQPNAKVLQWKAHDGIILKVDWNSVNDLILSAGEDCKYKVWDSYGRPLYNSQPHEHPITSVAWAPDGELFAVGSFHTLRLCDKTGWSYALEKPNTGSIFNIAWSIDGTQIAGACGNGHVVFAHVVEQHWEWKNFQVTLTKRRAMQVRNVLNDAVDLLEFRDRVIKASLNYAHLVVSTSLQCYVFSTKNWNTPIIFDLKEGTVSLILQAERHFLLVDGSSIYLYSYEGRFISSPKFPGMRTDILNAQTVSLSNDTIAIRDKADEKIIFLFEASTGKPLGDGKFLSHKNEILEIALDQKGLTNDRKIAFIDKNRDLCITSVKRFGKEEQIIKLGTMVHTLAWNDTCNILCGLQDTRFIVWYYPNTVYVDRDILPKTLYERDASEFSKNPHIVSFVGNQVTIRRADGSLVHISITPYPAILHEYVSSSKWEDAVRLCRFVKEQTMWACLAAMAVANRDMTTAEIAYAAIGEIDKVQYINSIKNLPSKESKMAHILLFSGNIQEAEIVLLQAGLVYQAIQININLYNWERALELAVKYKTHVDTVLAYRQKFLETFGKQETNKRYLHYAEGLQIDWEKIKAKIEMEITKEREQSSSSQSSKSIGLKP
UniProt Q96T52: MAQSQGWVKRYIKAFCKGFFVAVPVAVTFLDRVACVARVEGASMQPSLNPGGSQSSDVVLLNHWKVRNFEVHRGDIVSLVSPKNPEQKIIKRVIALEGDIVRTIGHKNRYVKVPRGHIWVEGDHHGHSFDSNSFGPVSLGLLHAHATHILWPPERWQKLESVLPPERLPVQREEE
UniProt P41252: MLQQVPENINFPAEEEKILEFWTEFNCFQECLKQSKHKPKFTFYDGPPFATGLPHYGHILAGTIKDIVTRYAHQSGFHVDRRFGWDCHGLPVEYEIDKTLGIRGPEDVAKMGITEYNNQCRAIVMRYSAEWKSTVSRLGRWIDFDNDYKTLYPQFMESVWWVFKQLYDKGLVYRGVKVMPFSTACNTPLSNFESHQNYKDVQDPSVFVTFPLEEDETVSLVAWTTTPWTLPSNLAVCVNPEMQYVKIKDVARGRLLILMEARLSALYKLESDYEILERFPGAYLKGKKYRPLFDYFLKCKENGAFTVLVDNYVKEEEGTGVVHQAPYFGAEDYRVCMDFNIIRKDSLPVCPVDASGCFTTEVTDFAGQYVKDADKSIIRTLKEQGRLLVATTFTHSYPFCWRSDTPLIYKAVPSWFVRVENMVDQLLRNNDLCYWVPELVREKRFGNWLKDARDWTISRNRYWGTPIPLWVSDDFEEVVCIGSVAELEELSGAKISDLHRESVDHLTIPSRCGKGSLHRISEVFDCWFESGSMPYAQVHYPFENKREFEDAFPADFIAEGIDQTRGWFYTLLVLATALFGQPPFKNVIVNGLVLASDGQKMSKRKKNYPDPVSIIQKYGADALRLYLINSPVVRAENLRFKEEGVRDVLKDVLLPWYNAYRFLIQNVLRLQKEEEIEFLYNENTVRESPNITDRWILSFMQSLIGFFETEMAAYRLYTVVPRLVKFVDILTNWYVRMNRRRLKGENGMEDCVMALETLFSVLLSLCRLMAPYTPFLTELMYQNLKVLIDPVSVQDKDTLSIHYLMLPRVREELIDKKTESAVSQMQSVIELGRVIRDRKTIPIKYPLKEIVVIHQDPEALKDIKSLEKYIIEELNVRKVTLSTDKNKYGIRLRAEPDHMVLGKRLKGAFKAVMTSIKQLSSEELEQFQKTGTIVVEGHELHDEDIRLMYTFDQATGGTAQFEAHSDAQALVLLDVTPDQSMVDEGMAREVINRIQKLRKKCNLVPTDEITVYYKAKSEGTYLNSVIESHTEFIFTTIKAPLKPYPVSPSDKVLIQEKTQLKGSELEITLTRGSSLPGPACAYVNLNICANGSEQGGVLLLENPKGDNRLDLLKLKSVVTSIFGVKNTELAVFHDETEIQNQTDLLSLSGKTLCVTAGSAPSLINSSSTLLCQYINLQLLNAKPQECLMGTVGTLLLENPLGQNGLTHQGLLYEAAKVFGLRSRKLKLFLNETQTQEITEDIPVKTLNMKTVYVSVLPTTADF
UniProt Q12906, whole entry, looked up: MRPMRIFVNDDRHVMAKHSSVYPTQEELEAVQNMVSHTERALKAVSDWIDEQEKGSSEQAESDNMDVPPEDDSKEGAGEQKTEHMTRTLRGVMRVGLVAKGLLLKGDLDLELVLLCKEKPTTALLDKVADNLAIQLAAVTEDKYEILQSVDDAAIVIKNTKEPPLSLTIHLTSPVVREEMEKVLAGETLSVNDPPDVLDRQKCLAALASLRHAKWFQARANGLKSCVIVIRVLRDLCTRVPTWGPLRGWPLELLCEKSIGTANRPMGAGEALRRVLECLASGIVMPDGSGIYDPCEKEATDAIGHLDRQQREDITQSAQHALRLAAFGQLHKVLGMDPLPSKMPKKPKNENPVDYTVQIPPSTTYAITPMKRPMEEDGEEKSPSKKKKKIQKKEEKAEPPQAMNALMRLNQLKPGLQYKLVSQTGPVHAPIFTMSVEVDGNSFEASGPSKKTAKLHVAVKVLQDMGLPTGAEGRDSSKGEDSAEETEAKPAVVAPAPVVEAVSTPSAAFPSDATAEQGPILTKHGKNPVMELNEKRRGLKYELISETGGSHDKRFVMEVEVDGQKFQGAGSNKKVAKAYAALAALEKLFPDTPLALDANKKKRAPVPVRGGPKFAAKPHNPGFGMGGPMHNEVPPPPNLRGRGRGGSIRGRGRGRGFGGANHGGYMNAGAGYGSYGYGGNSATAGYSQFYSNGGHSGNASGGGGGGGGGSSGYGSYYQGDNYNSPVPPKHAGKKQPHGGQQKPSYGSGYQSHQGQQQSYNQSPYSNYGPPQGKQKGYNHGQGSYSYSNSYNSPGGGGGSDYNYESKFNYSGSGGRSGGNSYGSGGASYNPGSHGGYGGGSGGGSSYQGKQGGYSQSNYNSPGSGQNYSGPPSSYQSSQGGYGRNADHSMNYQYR
UniProt O43719: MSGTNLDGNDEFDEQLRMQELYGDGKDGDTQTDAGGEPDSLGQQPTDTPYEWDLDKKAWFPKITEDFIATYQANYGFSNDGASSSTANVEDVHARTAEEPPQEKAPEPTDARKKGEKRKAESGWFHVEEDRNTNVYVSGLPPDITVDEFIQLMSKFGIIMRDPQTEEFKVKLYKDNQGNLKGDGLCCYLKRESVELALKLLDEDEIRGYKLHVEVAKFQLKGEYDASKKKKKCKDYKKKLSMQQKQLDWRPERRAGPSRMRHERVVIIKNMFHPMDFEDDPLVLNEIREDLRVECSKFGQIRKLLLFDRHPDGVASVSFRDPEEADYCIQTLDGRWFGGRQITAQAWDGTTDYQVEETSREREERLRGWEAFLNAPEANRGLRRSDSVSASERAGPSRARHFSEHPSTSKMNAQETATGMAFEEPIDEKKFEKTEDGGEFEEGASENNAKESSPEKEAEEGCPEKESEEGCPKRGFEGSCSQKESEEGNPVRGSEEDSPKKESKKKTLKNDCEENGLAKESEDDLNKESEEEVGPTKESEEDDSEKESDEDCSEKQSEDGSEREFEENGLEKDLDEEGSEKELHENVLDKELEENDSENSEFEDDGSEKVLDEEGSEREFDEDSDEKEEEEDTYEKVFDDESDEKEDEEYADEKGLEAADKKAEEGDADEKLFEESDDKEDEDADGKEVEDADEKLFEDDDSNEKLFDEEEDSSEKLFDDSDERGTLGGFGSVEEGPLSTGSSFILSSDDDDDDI
UniProt Q96CB8, whole entry, looked up: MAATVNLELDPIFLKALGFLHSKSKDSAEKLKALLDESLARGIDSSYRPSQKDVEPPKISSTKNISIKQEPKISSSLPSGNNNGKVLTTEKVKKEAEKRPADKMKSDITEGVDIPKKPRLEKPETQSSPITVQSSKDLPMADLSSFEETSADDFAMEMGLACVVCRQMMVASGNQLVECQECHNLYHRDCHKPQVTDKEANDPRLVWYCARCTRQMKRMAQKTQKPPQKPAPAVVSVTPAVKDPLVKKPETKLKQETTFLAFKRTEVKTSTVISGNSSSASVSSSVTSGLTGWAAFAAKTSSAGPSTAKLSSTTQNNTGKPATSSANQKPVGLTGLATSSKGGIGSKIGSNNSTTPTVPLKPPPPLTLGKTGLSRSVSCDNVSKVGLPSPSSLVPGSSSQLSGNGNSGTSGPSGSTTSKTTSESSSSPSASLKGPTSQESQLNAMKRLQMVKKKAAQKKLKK

What was measured:
Experiment in all cases: log2 fold change, soluble protein after heating vs DMSO (PISA); higher = thermal stabilisation; K562 lysate, 10 uM; active = over 0.2 and 3.5 SD of the protein, either way, in both replicates (recomputed)
nilotinib = compound: Cc1cn(-c2cc(NC(=O)c3ccc(C)c(Nc4nccc(-c5cccnc5)n4)c3)cc(C(F)(F)F)c2)cn1 [nilotinib]
Summary of the method: (§1)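 Thermal stability, expressed as log-two fold change relative to solvent controls, is given from duplicates. Crude K562 extract in PBS pH 7.4 with 1 mM MgCl2, at 1 mg/mL protein, was treated with 10 μM compound for 30 min and heated in aliquots for 3 min across 48°C-58°C. After pooling, adjustment to 0.5% NP-40 at 4°C and centrifugation at 21,000xg for 90 min, supernatant protein was measured by TMTpro 16plex LC-MS/MS with channel sums equalised.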

[1] = compound: Cc1nc(Nc2n[nH]c3c2CN(C(=O)N[C@H](CN(C)C)c2ccccc2)C3(C)C)c2sccc2n1
Summary of the method: as §1

dasatinib = compound: Cc1nc(Nc2ncc(C(=O)Nc3c(C)cccc3Cl)s2)cc(N2CCN(CCO)CC2)n1 [dasatinib]
Summary of the method: as §1

[2] = compound: Cc1ncc(-c2ccnc(Nc3ccc(S(C)(=O)=O)cc3)n2)n1C(C)C
Summary of the method: as §1

[3] = compound: Cn1cc(-c2ccc3c(c2)CCN3C(=O)Cc2cccc(C(F)(F)F)c2)c2c(N)ncnc21
Summary of the method: as §1

quisinostat = compound: Cn1cc(CNCC2CCN(c3ncc(C(=O)NO)cn3)CC2)c2ccccc21 [quisinostat]
Summary of the method: as §1

tipifarnib = compound: Cn1cncc1[C@@](N)(c1ccc(Cl)cc1)c1ccc2c(c1)c(-c1cccc(Cl)c1)cc(=O)n2C [tipifarnib]
Summary of the method: as §1

[4] = compound: NC(=O)Nc1cc(-c2cccc(F)c2)sc1C(=O)N[C@H]1CCCNC1
Summary of the method: as §1

[5] = compound: NC(=O)c1cnc(N[C@@H]2CCCC[C@@H]2N)nc1Nc1cccc(-n2nccn2)c1
Summary of the method: as §1

[6] = compound: NC1(c2ccc(-c3nc4ccn5c(=O)[nH]nc5c4cc3-c3ccccc3)cc2)CCC1
Summary of the method: as §1

[7] = compound: NCC(=O)Nc1ccc(-n2nc(C(F)(F)F)cc2-c2ccc3c(ccc4ccccc43)c2)cc1
Summary of the method: as §1

vorinostat = compound: O=C(CCCCCCC(=O)Nc1ccccc1)NO [vorinostat]
Summary of the method: as §1

silmitasertib = compound: O=C(O)c1ccc2c(c1)nc(Nc1cccc(Cl)c1)c1ccncc12 [silmitasertib]
Summary of the method: as §1

[8] = compound: O=C1NC(=O)C(c2cnc3ccccn23)=C1c1cn2c3c(cc(F)cc13)CN(C(=O)N1CCCCC1)CC2
Summary of the method: as §1

entospletinib = compound: c1cn2cc(-c3ccc4cn[nH]c4c3)nc(Nc3ccc(N4CCOCC4)cc3)c2n1 [entospletinib]
Summary of the method: as §1

Target | log2 fold change (nilotinib) | log2 fold change [1] | log2 fold change (dasatinib) | log2 fold change [2] | log2 fold change [3] | log2 fold change (quisinostat) | log2 fold change (tipifarnib) | log2 fold change [4] | log2 fold change [5] | log2 fold change [6] | log2 fold change [7] | log2 fold change (vorinostat) | log2 fold change (silmitasertib) | log2 fold change [8] | log2 fold change (entospletinib)
INTS11 (UniProt Q5TA45) | inactive: 0.015 | inactive: 0.042 | inactive: -0.015 | inactive: -0.04 | inactive: 0.033 | inactive: 0.024 | inactive: 0.013 | inactive: 0.026 | inactive: -0.006 | inactive: 0.008 | inactive: -0.012 | inactive: -0.111 | inactive: 0.028 | inactive: -0.006 | inactive: 0.025
IGF2BP3 (UniProt O00425) | inactive: -0.046 | inactive: 0.008 | inactive: -0.035 | inactive: 0.006 | inactive: 0.063 | inactive: -0.045 | inactive: 0.008 | inactive: 0.039 | inactive: 0.013 | inactive: -0.027 | inactive: -0.012 | active: -0.305 | inactive: 0.025 | inactive: 0 | inactive: 0.006
IKBKB (UniProt O14920) | inactive: -0.002 | inactive: 0.06 | inactive: -0.034 | inactive: -0.015 | inactive: 0.025 | inactive: -0.055 | inactive: -0.003 | inactive: 0.076 | inactive: 0.027 | inactive: -0.057 | inactive: -0.024 | inactive: -0.203 | inactive: 0.075 | inactive: -0.035 | inactive: 0.009
IFNGR1 (UniProt P15260) | inactive: 0.227 | inactive: -0.068 | inactive: -0.018 | inactive: 0.133 | inactive: -0.125 | inactive: 0.047 | inactive: -0.08 | inactive: 0.013 | inactive: 0.084 | inactive: -0.101 | inactive: 0.15 | inactive: 0.147 | inactive: -0.006 | inactive: 0.046 | inactive: -0.042
IKBIP (UniProt Q70UQ0) | inactive: -0.087 | inactive: -0.017 | inactive: 0.005 | inactive: 0.06 | inactive: -0.012 | inactive: 0.052 | inactive: -0.049 | inactive: 0.012 | inactive: -0.024 | inactive: -0.026 | inactive: -0.031 | inactive: 0.166 | inactive: -0.004 | inactive: -0.042 | inactive: -0.032
IMP3 (UniProt Q9NV31) | inactive: -0.03 | inactive: 0.011 | inactive: -0.002 | inactive: 0.033 | inactive: 1.27 | inactive: -0.229 | inactive: -0.077 | inactive: 0.032 | inactive: -0.036 | inactive: -0.046 | inactive: 0.091 | inactive: -0.048 | inactive: 0.064 | inactive: 0.1 | inactive: 0.035
IMPAD1 (UniProt Q9NX62) | inactive: -0.045 | inactive: -0.036 | inactive: -0.022 | inactive: -0.027 | inactive: -0.071 | inactive: -0.032 | inactive: 0.051 | inactive: -0.044 | inactive: 0.017 | inactive: -0.001 | inactive: -0.017 | inactive: 0.1 | inactive: -0.022 | inactive: 0.005 | inactive: 0.036
IL18 (UniProt Q14116) | inactive: 0.002 | inactive: -0.012 | inactive: 0.035 | inactive: -0.039 | inactive: -0.011 | inactive: -0.033 | inactive: 0.011 | inactive: 0.009 | inactive: 0.024 | inactive: 0.001 | inactive: 0.011 | inactive: 0.043 | inactive: 0.031 | inactive: 0.034 | inactive: -0.067
IFT80 isoform 3 (UniProt Q9P2H3) | inactive: 0.072 | inactive: 0.034 | inactive: -0.233 | inactive: 0 | inactive: -0.01 | inactive: 0.058 | inactive: -0.023 | inactive: -0.024 | inactive: 0.139 | inactive: -0.031 | inactive: 0.197 | inactive: -0.021 | inactive: 0.098 | inactive: -0.007 | inactive: -0.033
IMPDH2 (UniProt P12268) | inactive: 0 | inactive: -0.009 | inactive: -0.036 | inactive: -0.009 | inactive: 0.004 | inactive: -0.073 | inactive: 0.029 | inactive: 0.006 | inactive: -0.016 | inactive: 0.031 | inactive: 0.002 | active: -1.14 | inactive: 0.004 | inactive: 0.004 | inactive: 0.014
INTS13 (UniProt Q9NVM9) | inactive: -0.032 | inactive: 0.017 | inactive: -0.04 | inactive: -0.019 | inactive: 0.027 | inactive: 0.002 | inactive: 0 | inactive: 0.031 | inactive: 0.001 | inactive: 0.028 | inactive: 0.02 | inactive: -0.166 | inactive: 0.02 | inactive: -0.027 | inactive: -0.022
IBTK (UniProt Q9P2D0) | inactive: -0.025 | inactive: -0.029 | inactive: -0.04 | inactive: 0.007 | inactive: -0.01 | inactive: 0.001 | inactive: -0.049 | inactive: 0.049 | inactive: -0.057 | inactive: 0.006 | inactive: 0.054 | inactive: -0.052 | inactive: -0.02 | inactive: -0.015 | inactive: -0.009
INPP5B (UniProt P32019) | inactive: -0.027 | inactive: 0.024 | inactive: -0.021 | inactive: -0.003 | inactive: 0.047 | inactive: -0.04 | inactive: 0.006 | inactive: 0.026 | inactive: -0.003 | inactive: 0.001 | inactive: 0.01 | inactive: -0.141 | inactive: -0.006 | inactive: -0.006 | inactive: 0.007
HSPG2 (UniProt P98160) | inactive: -0.043 | inactive: -0.052 | inactive: -0.019 | inactive: -0.08 | inactive: 0.024 | inactive: -0.043 | inactive: 0.061 | inactive: -0.018 | inactive: 0.029 | inactive: -0.03 | inactive: -0.032 | inactive: 0.088 | inactive: -0.016 | inactive: -0.022 | inactive: -0.024
HSPA8 (UniProt E9PK54) | inactive: 0.023 | inactive: -0.053 | inactive: -0.024 | inactive: -0.021 | inactive: -0.032 | inactive: -0.093 | inactive: -0.01 | inactive: 0.113 | inactive: -0.033 | inactive: 0.004 | inactive: 0.068 | inactive: -0.004 | inactive: -0.037 | inactive: -0.022 | inactive: 0.012
IMMP2L (UniProt Q96T52) | inactive: -0.059 | inactive: 0.067 | inactive: -0.065 | inactive: 0 | inactive: 0.005 | inactive: -0.004 | inactive: -0.038 | inactive: 0.043 | inactive: 0.042 | inactive: 0.193 | inactive: 0.047 | inactive: -0.095 | inactive: -0.183 | inactive: -0.064 | inactive: 0.059
IARS (UniProt P41252) | inactive: 0.007 | inactive: -0.007 | inactive: -0.042 | inactive: -0.015 | inactive: 0.053 | inactive: -0.02 | inactive: -0.003 | inactive: 0.038 | inactive: 0.001 | inactive: -0.029 | inactive: 0.014 | active: -0.325 | inactive: 0.046 | inactive: -0.008 | inactive: 0.031
ILF3 isoform 7 (UniProt Q12906) | inactive: -0.024 | inactive: 0.002 | inactive: 0 | inactive: -0.017 | inactive: 0.014 | inactive: 0.039 | inactive: 0.016 | inactive: -0.01 | inactive: -0.004 | inactive: 0.01 | inactive: 0.004 | inactive: 0.092 | inactive: 0.005 | inactive: 0.026 | inactive: -0.005
HTATSF1 (UniProt O43719) | inactive: -0.036 | inactive: 0.021 | inactive: 0.024 | inactive: -0.006 | inactive: -0.002 | inactive: 0 | inactive: -0.007 | inactive: -0.022 | inactive: 0.011 | inactive: 0.003 | inactive: -0.014 | inactive: -0.002 | inactive: 0.008 | inactive: -0.043 | inactive: -0.015
INTS12 (UniProt Q96CB8) | inactive: -0.028 | inactive: 0.033 | inactive: 0.027 | inactive: -0.084 | inactive: -0.08 | inactive: -0.037 | inactive: -0.028 | inactive: 0.067 | inactive: 0.037 | inactive: -0.01 | inactive: 0.018 | inactive: -0.156 | inactive: -0.046 | inactive: -0.035 | inactive: -0.017
INF2 (UniProt Q27J81) | inactive: -0.08 | inactive: 0.055 | inactive: 0.032 | inactive: 0.034 | inactive: -0.013 | inactive: -0.051 | inactive: -0.079 | inactive: 0.023 | inactive: 0.005 | inactive: -0.035 | inactive: -0.023 | active: -0.333 | inactive: -0.027 | inactive: 0.018 | inactive: -0.09

Single records (already shown). Order of values: log2 fold change (nilotinib)	log2 fold change [1]	log2 fold change (dasatinib)	log2 fold change [2]	log2 fold change [3]	log2 fold change (quisinostat)	log2 fold change (tipifarnib)	log2 fold change [4]	log2 fold change [5]	log2 fold change [6]	log2 fold change [7]	log2 fold change (vorinostat)	log2 fold change (silmitasertib)	log2 fold change [8]	log2 fold change (entospletinib)
INPP5B (UniProt P32019) as listed: inactive: -0.027	inactive: 0.024	inactive: -0.021	inactive: -0.003	inactive: 0.047	inactive: -0.04	inactive: 0.006	inactive: 0.026	inactive: -0.003	inactive: 0.001	inactive: 0.01	inactive: -0.141	inactive: -0.006	inactive: -0.006	inactive: 0.007
IFNGR1 (UniProt P15260) as listed: inactive: 0.227	inactive: -0.068	inactive: -0.018	inactive: 0.133	inactive: -0.125	inactive: 0.047	inactive: -0.08	inactive: 0.013	inactive: 0.084	inactive: -0.101	inactive: 0.15	inactive: 0.147	inactive: -0.006	inactive: 0.046	inactive: -0.042
